From PubChem BioAssay AID504834 (National Center for Advancing Translational Sciences (NCATS), 2011)
The campaign covered roughly 320,000 compounds. About 22,000 (6.9%) were called active. The shares of active, inactive and inconclusive entries below differ from those in the screen. Calls follow the shape of the dose curve; as a rule, active = well fitted inhibition curve with a large enough effect; inconclusive = small, poorly fitted or top-dose-only effect, or another doubt; inactive = no such curve, though single readings can be large or run the other way. Potencies beside an inconclusive call are fits to weak or partial responses and may not hold up.

Test: Primary qHTS for delayed death inhibitors of the malarial parasite plastid, 96 hour incubation
Settings: P. falciparum luciferase reporter growth; series mostly up to 28.7 µM; activity change, negative = inhibition: at the top concentration
Summary of the method: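 Two-generation exposure (96 h) targets delayed-death phenotype. Reporter parasites carrying integrated firefly luciferase, in red cells at 2% hematocrit and 0.05% parasitemia final, kept at 37 C, 5% CO2; luminescence loss indicates inhibition.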
% is scaled to controls: 0 for no effect and ±100 for the full control effect; potency is read from the fitted curve at half-maximal effect.

Compound	Potency	activity change, negative = inhibition
CC(C)(C)OC(=O)NCCCC[C@H](NC(=O)c1nc[nH]c1C(=O)N[C@@H](CCCCNC(=O)OC(C)(C)C)C(=O)OC(C)(C)C)C(=O)OC(C)(C)C	active: 1.65 µM	–
COc1ccccc1OCC(=O)N1CCN(S(=O)(=O)c2ccc(Cl)cc2)CC1	inconclusive: 8.28 µM [inhibitor, partial curve, poor fit]	–
COc1ccc(-c2n[nH]c(=S)n2-c2cc(OC)ccc2OC)cc1	inconclusive: 18.5 µM [inhibitor, single point]	–
Cc1cccnc1NC(=O)c1ccc2c(c1)NC(=O)C(C)S2 (stereo not given)	–	inactive: 19.7%
Cc1cccc2sc(N3CCN(C(=O)c4cccs4)CC3)nc12	inconclusive: 18.5 µM [inhibitor, single point]	–
O=C(OCC(=O)N1CCc2ccccc21)c1cncc(Br)c1	–	inactive: 9.69%
O=C(CCn1c(=O)oc2ccc(Cl)cc21)N1CCN(Cc2ccccc2)CC1	inconclusive: 11.7 µM [inhibitor, partial curve, poor fit]	–
Cc1cccc(COC(=O)Nc2ccc(NC(=O)c3ccccc3Cl)cc2)c1	–	inactive: -24.4%
Cc1ccc(C(C)(C)NC(=O)C2CCC(=O)N(Cc3ccccc3F)C2)cc1 (stereo not given)	–	inactive: 2.67%
Clc1ccc(-c2csc3ncnc(N4CCc5ccccc5C4)c23)cc1	inconclusive: 11.7 µM [inhibitor, single point]	–
CCN(CC)CCOc1ccc(Br)cc1	active: 2.62 µM	–
CCOCCOC(=O)COc1ccc2c(-c3ccccc3)cc(=O)oc2c1	–	inactive: 14.4%
OCCNCc1cc(Br)ccc1OCc1ccc(F)cc1	inconclusive: 18.5 µM [inhibitor, single point]	–
CC(C)CCNC(=O)CCS(=O)(=O)c1cccc2nonc12	active: 11.7 µM	–
COc1ccc(N(C)C(=O)Cn2c(=O)oc3ccccc32)c(OC)c1	inconclusive: 14.7 µM [inhibitor, single point]	–
CC(C)(C)c1nc(NCC2CCCO2)c2nnn(Cc3ccccc3)c2n1 (stereo not given)	–	inactive: -41.5%
CC(C)(CO)NC(=O)CC1C(=O)NCCN1Cc1ccc(-c2ccccc2)cc1 (stereo not given)	inconclusive: 18.5 µM [inhibitor, single point]	–
CN1CCN(C(=O)/C(=C/c2cn(S(=O)(=O)N(C)C)c3ccccc23)NC(=O)c2ccccc2Cl)CC1	inconclusive: 11.7 µM [inhibitor, single point]	–
COc1cc(C=C2C(=O)OC(c3ccccc3)OC2=O)cc(Br)c1O (stereo not given)	inconclusive: 2.33 µM [inhibitor, single point]	–
COC(=O)c1sc(C(C)(C)C)cc1CS(=O)(=O)c1ccccn1	active: 13.1 µM	–
O=C(c1ccc(S(=O)(=O)N2CCOCC2)cc1)N1CCc2ccccc21	inconclusive: 18.5 µM [inhibitor, partial curve, poor fit]	–
O=[N+]([O-])c1ccc(N2CCN(c3ccccc3O)CC2)cc1	–	inactive: 21%
Cc1ccc2nc(-c3ccccc3)cc(C(=O)N3CCN(S(=O)(=O)c4c(C)noc4C)CC3)c2c1	active: 10.4 µM	–

Compound	Potency	activity change, negative = inhibition
O=S(=O)(c1ccccc1)N1CCN(Cc2cc3c(cc2Br)OCCO3)CC1	inconclusive: 18.5 µM [inhibitor, single point]	–
Cc1ccccc1OCC(=O)OCC(=O)NCC1CCCO1 (stereo not given)	–	inactive: -16%
CC1CCN(C(=O)COC(=O)Cc2ccc(Br)cc2)CC1	–	inactive: 30.3%
COC(=O)c1cc(OC)nc2ccc(Br)cc12	inconclusive: 16.5 µM [inhibitor, single point]	–
COc1cccc(-n2c(/C=C/c3ccc(O)c(O)c3)nc3ccccc3c2=O)c1	active: 9.28 µM	–
Cc1ccc(CCNC(=O)c2c[nH]c3ccc(S(=O)(=O)Nc4ccc(C)cc4C)cc3c2=O)cc1	inconclusive: 7.38 µM [inhibitor, partial curve]	–
COc1ccc(C)cc1NC(=O)CN(C)S(=O)(=O)c1ccc2c(c1)n(C)c(=O)c(=O)n2C	inconclusive: 0.294 µM [inhibitor, single point]	–
CCc1ccccc1OCC(=O)Nc1cccc(S(=O)(=O)NCc2ccco2)c1	inconclusive: 18.5 µM [inhibitor, single point]	–
O=C(c1ccc(CS(=O)(=O)c2ccc(Br)cc2)o1)N1CCN(C2CCCCC2)CC1	–	inactive: 24.2%
CCOc1ncccc1C(=O)OCC(=O)c1cc(C)n(Cc2ccco2)c1C	–	inactive: 73.5%
COCCC(=O)N1CCC(Oc2ccc(C(=O)NCc3cc(C)n(C)n3)cc2)CC1	inconclusive: 18.5 µM [inhibitor, single point]	–
Cc1ccc(C(=O)N/C(=C\c2cn(S(=O)(=O)N(C)C)c3ccccc23)C(=O)NCCN2CCOCC2)cc1	inconclusive: 16.5 µM [inhibitor, partial curve, poor fit]	–
COCCn1c(COC)nc2ccccc21	–	inactive: -4.72%
Cc1cc(C(=O)N/N=C/c2c(CO)cnc(C)c2O)c2ccccc2n1	inconclusive: 18.5 µM [inhibitor, single point]	–
Cc1cccc(NC(=O)CN2C(=O)C(C)Oc3ccccc32)n1 (stereo not given)	inconclusive: 10.4 µM [inhibitor, single point]	–
Cc1cc(=O)[nH]c(SCc2ccccc2)n1	–	inactive: 2.74%
COc1ccccc1N(C(=O)CNC(=O)c1ccco1)C(C(=O)NC1CCCC1)c1ccncc1 (stereo not given)	inconclusive: 0.0026 µM [inhibitor, full curve, poor fit]	–
COc1ccc(CC2(CO)CCN(Cc3ccc4c(c3)CCO4)CC2)cc1	inconclusive: 1.65 µM [inhibitor, partial curve, poor fit]	–
CCOC(=O)C1CCCN(C(=O)c2ccc(OC)c([N+](=O)[O-])c2)C1 (stereo not given)	inconclusive: 11.7 µM [inhibitor, partial curve, poor fit]	–
COc1ccc(/C=N/NC(=O)c2ccncc2)cc1Cn1nc([N+](=O)[O-])c(Br)c1C	active: 4.15 µM	–
COC(=O)c1cc2oc(C)cc2n1CC(=O)N1CCCc2ccccc21	active: 6.57 µM	–
CC(C)C(C)NC(=O)COc1ccc(Sc2ccc(OCC(=O)NC(C)C(C)C)cc2)cc1 (stereo not given)	inconclusive: 18.5 µM [inhibitor, single point]	–

Individual results from above.
Value for COCCn1c(COC)nc2ccccc21 under activity change, negative = inhibition: inactive: -4.72%
Value for Cc1cccc(NC(=O)CN2C(=O)C(C)Oc3ccccc32)n1 (stereo not given) under Potency: inconclusive: 10.4 µM [inhibitor, single point]
